The text below walks through data of US9783545B2, “Pyrazolopyridazines and methods for treating retinal-degenerative diseases and hearing loss associated with usher syndrome” (Usher III Initiative, Inc., priority 2012, dated 2017).

Protein sequences, listed by entry. Tags and fused reporters are not part of them.
UniProt P58418, whole entry N48K: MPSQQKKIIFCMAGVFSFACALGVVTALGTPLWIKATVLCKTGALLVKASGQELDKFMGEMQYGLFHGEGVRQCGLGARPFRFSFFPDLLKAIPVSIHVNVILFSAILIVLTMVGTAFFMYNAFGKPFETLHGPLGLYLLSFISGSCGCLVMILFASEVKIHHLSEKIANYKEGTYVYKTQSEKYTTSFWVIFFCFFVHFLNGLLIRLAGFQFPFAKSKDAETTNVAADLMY

The target in the experiment is N48K Clarin-1 (Homo sapiens, UniProt P58418, N48K). Nature of the experiment: Restoration of expression of N48K Clarin-1, 24 hour incubation (high content imaging of HA-tagged N48K Clarin-1). The conditions noted are these: HEK293-Clarin-1 N48K-HA D9 cell line, 24 hr incubation with compound. Here is the method:
Assay Method Showing Activity of Compounds of the Invention that Restore Expression of N48K Clarin-1 (24 hour incubation)
Clarin-1 is the protein encoded by the gene mutated in Usher III Syndrome (Adato et al., 2002). The most prevalent mutation in Clarin-1 in North America is N48K, which is reported to cause loss of glycosylation and a trafficking defect (Tian et al., 2009). […] Thus it is believed that restoring the trafficking of N48K Clarin-1 to the cell surface provides an avenue of intervention for Usher III Sydrome. […]
The HA-tagged N48K Clarin-1 was detected with an antibody against the HA tag (HA.11 Clone 16B12 Monoclonal antibody, Covance #MMS-101P) at a dilution of 1:1000 in PBS containing Triton X-100. […] The imaging of the stained cells was performed on an InCell 1000 High Content Imager (GE Healthcare), reading out the Cy3 channel for N48K Clarin-1 and the DAPI channel for nuclei. The images were analyzed and quantitated using a specific algorithm. This algorithm measured the HA-Clarin-1 staining for each cell based on the additional nuclear segmentation of the DAPI signal (FIG. 1). This algorithm measured the intensity per cell, and thus it is less sensitive for variation in cell number. Per well, approximately 2,000 cells were measured to achieve an average density per cell measurement. […]

The match of structure and compound is tentative.

As to `OCCn1nc(-c2cccnc2)c2c(Cl)c(-c3ccccc3)nnc21`, the concentration for a half-maximal effect (EC50) is below 2000 nM.

A word on the EC50: it is the concentration giving half of the maximal effect.
